Binding data for 2 molecules are collected here from paper PMC13470446.

For this test, the target named is T1, Nse3-3xSTII (S. cerevisiae) (UniProt Q05541).
T1 sequence: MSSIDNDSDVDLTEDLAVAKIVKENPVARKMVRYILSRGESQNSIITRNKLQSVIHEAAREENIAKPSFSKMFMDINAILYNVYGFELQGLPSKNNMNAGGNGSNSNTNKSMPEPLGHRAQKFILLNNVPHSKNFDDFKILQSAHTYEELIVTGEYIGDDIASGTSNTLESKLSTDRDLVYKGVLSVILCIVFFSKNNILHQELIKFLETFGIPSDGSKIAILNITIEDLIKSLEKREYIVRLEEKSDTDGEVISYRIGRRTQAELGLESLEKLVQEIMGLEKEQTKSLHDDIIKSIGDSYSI
Put plainly: co-IP; yeast whole cell extracts; Nse3-3xSTII captured on StrepTactin XT resin overnight at 4°C; washes with lysis buffer (140 mM NaCl), high salt buffer (360 mM NaCl) and TE; blots with anti-Strep and anti-Myc (9E10).

Changes are numbered by the printed parent chain. Results are given in words; binding and its absence hold for the method and conditions named. Binding seen in cells or lysates may run through a third protein. Some results given as binding are weak or reduced against the parent protein; the word gives no strength. Tags and fused reporters may be left off the sequences shown.

B1: Smc5-13xMYC (protein, UniProt Q08204 1-1093)
chain: MTSLIDLGRYVERTHHGEDTEPRSKRVKIAKPDLSSFQPGSIIKIRLQDFVTYTLTEFNLSPSLNMIIGPNGSGKSTFVCAVCLGLAGKPEYIGRSKKVEDFIKNGQDVSKIEITLKNSPNVTDIEYIDARDETIKITRIITRSKRRSDYLINDYQVSESVVKTLVAQLNIQLDNLCQFLSQERVEEFARLKSVKLLVETIRSIDASLLDVLDELRELQGNEQSLQKDLDFKKAKIVHLRQESDKLRKSVESLRDFQNKKGEIELHSQLLPYVKVKDHKEKLNIYKEEYERAKANLRAILKDKKPFANTKKTLENQVEELTEKCSLKTDEFLKAKEKINEIFEKLNTIRDEVIKKKNQNEYYRGRTKKLQATIISTKEDFLRSQEILAQTHLPEKSVFEDIDIKRKEIINKEGEIRDLISEIDAKANAINHEMRSIQRQAESKTKSLTTTDKIGILNQDQDLKEVRDAVLMVREHPEMKDKILEPPIMTVSAINAQFAAYLAQCVDYNTSKALTVVDSDSYKLFANPILDKFKVNLRELSSADTTPPVPAETVRDLGFEGYLSDFITGDKRVMKMLCQTSKIHTIPVSRRELTPAQIKKLITPRPNGKILFKRIIHGNRLVDIKQSAYGSKQVFPTDVSIKQTNFYQGSIMSNEQKIRIENEIINLKNEYNDRKSTLDALSNQKSGYRHELSELASKNDDINREAHQLNEIRKKYTMRKSTIETLREKLDQLKREARKDVSQKIKDIDDQIQQLLLKQRHLLSKMASSMKSLKNCQKELISTQILQFEAQNMDVSMNDVIGFFNEREADLKSQYEDKKKFVKEMRDTPEFQSWMREIRSYDQDTKEKLNKVAEKYEEEGNFNLSFVQDVLDKLESEIAMVNHDESAVTILDQVTAELRELEHTVPQQSKDLETIKAKLKEDHAVLEPKLDDIVSKISARFARLFNNVGSAGAVRLEKPKDYAEWKIEIMVKFRDNAPLKKLDSHTQSGGERAVSTVLYMIALQEFTSAPFRVVDEINQGMDSRNERIVHKAMVENACAENTSQYFLITPKLLTGLHYHEKMRIHCVMAGSWIPNPSEDPKMIHFGETSNYSFD
On to B1, for which the binding result is recorded as “binds”.

B2: Smc5-2KE-13xMYC (protein, UniProt Q08204 1-1093)
chain: B1 chain with K624E, K631E
As to B2, the binding result is recorded as “binds”.
